# Results as given in patent publication US20220144911A1.
# No constants are given. Whether binding was seen depends on the method and setting. Binding can be weak; no strength is given. Tags and fused reporters may be left off the sequences shown.
# B1: RhIL10R1-FC-SLS (Fc fusion)
# chain: AHGTELPSPPSVWFEAEFFHHILHWTPIPNQSESTCYEVALLRYGTGRWNSISNCSQALSYDLTAVTLDLYRSNGYWARVRAVDGSRHSNWTVTNTRFSLDEVTLTVGSVKLEIHNGFILGKIQPPRPKMAPANDTYESIFRHFREYEIAIRKVPGNFTFTHKKVKHENFSLLTSGEVGEFCVQVKPSVTSRTNKGMWSKEECVSLTRQYFTVTNVGSGGGGPSVFLFPPKPKDTLMISRTPEVTCVVVDVSQEDPDVKFNWYVNGAEVHHAQTKPRETQYNSTYRVVSVLTVTHQDWLNGKEYTCKVSNKALPAPIQKTISKDKGQPREPQVYTLPPSREELTKNQVSLTCLVKGFYPSDIVVEWESSGQPENTYKTTPPVLDSDGSYFLYSKLTVDKSRWQQGNVFSCSVMHEALHNHYTQKSLSLSGGCGTPGK
# Key:
# [1] = target: RhCMVIL10 (rhesus cytomegalovirus (printed as RhCMV)); experiment: SPR
# [2] = target: RhCMVIL10 (rhesus cytomegalovirus (printed as RhCMV)); experiment: SPR sensorgrams
binder,measurement,setting,value
B1,binding,[1],binds
same,binding,[2],binds
